Measured values published in PMC6618013.
These are yes or no findings as the source states them, for the method shown. In cells and extracts the contact can be indirect. A result given as binding can be weak or reduced; the word gives no strength.

Target: myeloid differentiation protein 2 (MD2) (rat (endogenous in rat peritoneal macrophages))
Experiment: co-IP; macrophages treated with LPS (100 ng/ml) and 3 µg/ml gCTRP9, MD2‐neutralizing antibody (100 ng/ml) or vehicle for 15 min; cell extracts precipitated with anti‐MD2 (blot for TLR4) or anti‐TLR4 (blot for MyD88), protein A magnetic beads, 4°C overnight

binding: binds
B1: toll‐like receptor 4 (TLR4) (receptor, UniProt Q9QX05 26-835)
chain: NPCIEVLPNITYQCMDQNLSKIPHDIPYSTKNLDLSFNPLKILRSYSFTNFSQLQWLDLSRCEIETIEDKAWHGLNQLSTLVLTGNPIKSFSPGSFSGLTNLENLVAVETKMTSLEGFHIGQLISLKKLNVAHNLIHSFKLPEYFSNLTNLEHVDLSYNYIQTISVKDLQFLRENPQVNLSLDLSLNPIDSIQAQAFQGIRLHELTLRSNFNSSNVLKMCLQNMTGLHVHRLILGEFKNERNLESFDRSVMEGLCNVSIDEFRLTYINHFSDDIYNLNCLANISAMSFTGVHIKHIADVPRHFKWQSLSIIRCHLKPFPKLSLPFLKSWTLTTNREDISFGQLALPSLRYLDLSRNAMSFRGCCSYSDFGTNNLKYLDLSFNGVILMSANFMGLEELEYLDFQHSTLKKVTEFSVFLSLEKLLYLDISYTNTKIDFDGIFLGLISLNTLKMAGNSFKDNTLSNVFTNTTNLTFLDLSKCQLEQISRGVFDTLYRLQLLNMSHNNLLFLDPSHYKQLYSLRTLDCSFNRIETSKGILQHFPKSLAVFNLTNNSVACICEYQNFLQWVKDQKMFLVNVEQMKCASPIDMKASLVLDFTNSTCYIYKTIISVSVVSVLVVATVAFLIYHFYFHLILIAGCKKYSRGESIYDAFVIYSSQNEDWVRNELVKNLEEGVPRFQLCLHYRDFIPGVAIAANIIQEGFHKSRKVIVVVSRHFIQSRWCIFEYEIAQTWQFLSSRSGIIFIVLEKVEKSLLRQQVELYRLLSRNTYLEWEDNALGRHIFWRRLKKALLDGKALNPDETSEEEQEATTLT
